Measurements reported in US20120251527A1, “PODOCYTE SPECIFIC ASSAYS AND USES THEREOF” (University of Miami, priority 2009, published 2012).
For at least one compound, name, drawing or mass did not settle the structure.

What was measured:
NFAT = assay: Podocyte-NFAT reporter assay (luciferase); type: cell-based, mouse; settings: for NFAT activity: FIG. 9A/9C
Source text: Podocyte-NFAT reporter assays: A podocyte cell line that stably expressed pGL4.30 reporter plasmid (Promega) was generated. pGL4.30 includes the luc2P firefly luciferase gene under the control of the NFAT response element. For LPS treatments both wt and stable TRPC6 knockdown podocyte cell line were transiently transfected with the pGL4.30 and pGL4.74 reporter plasmids (Promega). pGL4.74 includes the hRluc Renilla luciferase gene under the control of the constitutive HSV-TK promoter, serving as an internal control for normalization of the results. Cells were seeded in 96 well plates in standardized cell number and differentiated for three weeks prior to transfection and treatments. Stable cell lines were probed with BRIGHT-GLO Luciferase Assay System (Promega), transiently transfected cells were assayed with DUAL-GLO Luciferase Assay System (Promega). Luminescence was measured on a Molecular Devices luminescence microplate reader SpectraMax L. All experiments were carried out in octuplicate per condition and repeated in three independent experiments.

synaptopodin = assay: Podocytes rescue experiments, Western blot of synaptopodin in TRPC6 knockdown podocytes; type: cell-based, mouse; settings: 10 μM forskolin, 1 mg/ml CsA, 20 μM Cathepsin L inhibitor
[1] = untreated podocytes / normal conditions

Row | Compound | NFAT activity (NFAT; LPS treated podocytes) | NFAT activity (NFAT; [1]) | LPS induction of NFAT (NFAT; podocytes, FIGS. 5A and 5B) | synaptopodin expression (synaptopodin)
1 | C=CC[C@@H]1/C=C(\C)C[C@H](C)C[C@H](OC)[C@H]2O[C@@](O)(C(=O)C(=O)N3CCCC[C@H]3C(=O)O[C@H](/C(C)=C/[C@@H]3CC[C@@H](O)[C@H](OC)C3)[C@H](C)[C@@H](O)CC1=O)[C@H](C)C[C@@H]2OC [FK506] | decreased | decreased | – | –
2 | C[C@@H]1C[C@H]2[C@@H]3CCC4=CC(=O)C=C[C@]4(C)[C@@]3(F)[C@@H](O)C[C@]2(C)[C@@]1(O)C(=O)CO [dexamethasone] | reduces | reduces | abrogated | –
3 | C=C[C@@]1(C)CC(=O)[C@]2(O)[C@@]3(C)[C@@H](O)CCC(C)(C)[C@@H]3[C@H](O)[C@H](OC(C)=O)[C@@]2(C)O1 [forskolin] | – | – | – | increased
